According to article PMC8891362:
No constants are given. Whether binding was seen depends on the method and setting. Binding seen in cells or lysates may run through a third protein. Some entries that bind do so weakly or less than the wild type. Sequences can lack the tags named with a protein.

The chains behind the UniProt entries cited, without tags or fusion partners. Residues count along the entry.
UniProt P08581, residues 25-1390: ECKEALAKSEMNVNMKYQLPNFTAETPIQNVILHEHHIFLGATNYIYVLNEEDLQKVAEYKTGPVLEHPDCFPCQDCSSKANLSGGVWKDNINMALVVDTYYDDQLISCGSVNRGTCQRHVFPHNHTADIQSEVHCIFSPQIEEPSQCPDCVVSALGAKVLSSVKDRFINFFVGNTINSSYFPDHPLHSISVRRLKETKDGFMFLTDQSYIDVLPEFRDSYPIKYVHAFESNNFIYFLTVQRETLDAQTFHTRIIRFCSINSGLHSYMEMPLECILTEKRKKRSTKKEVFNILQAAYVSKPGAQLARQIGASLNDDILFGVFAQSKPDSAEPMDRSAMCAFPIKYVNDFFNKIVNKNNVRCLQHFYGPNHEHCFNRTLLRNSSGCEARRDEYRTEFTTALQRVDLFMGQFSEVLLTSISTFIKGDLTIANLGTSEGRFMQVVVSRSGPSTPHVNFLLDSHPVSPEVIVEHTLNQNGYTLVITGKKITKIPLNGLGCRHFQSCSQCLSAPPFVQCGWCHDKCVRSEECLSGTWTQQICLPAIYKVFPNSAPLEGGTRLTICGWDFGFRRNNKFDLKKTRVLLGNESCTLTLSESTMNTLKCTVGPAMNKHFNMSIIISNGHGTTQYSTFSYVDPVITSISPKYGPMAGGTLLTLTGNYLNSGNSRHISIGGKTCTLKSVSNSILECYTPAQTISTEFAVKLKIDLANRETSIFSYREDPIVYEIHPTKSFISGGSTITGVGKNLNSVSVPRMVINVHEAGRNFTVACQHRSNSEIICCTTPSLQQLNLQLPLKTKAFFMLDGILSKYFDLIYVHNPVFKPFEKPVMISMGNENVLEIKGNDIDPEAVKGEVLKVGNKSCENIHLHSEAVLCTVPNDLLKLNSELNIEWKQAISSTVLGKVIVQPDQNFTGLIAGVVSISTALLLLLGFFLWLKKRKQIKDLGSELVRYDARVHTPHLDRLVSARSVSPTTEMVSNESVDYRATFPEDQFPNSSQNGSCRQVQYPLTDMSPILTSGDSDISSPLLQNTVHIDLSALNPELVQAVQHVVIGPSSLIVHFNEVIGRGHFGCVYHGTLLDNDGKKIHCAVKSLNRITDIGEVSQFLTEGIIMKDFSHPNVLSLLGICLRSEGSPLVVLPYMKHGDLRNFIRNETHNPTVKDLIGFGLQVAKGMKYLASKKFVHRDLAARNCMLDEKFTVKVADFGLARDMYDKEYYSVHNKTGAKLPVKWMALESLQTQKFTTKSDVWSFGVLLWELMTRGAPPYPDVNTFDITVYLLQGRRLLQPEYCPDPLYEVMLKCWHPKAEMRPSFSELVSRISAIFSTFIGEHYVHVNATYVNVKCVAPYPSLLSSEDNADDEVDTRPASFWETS

Biological target: c-MET (human (endogenous in Hep3B)) (UniProt P08581)
Assay: co-IP; Hep3B cells; endogenous c-MET and Flag-tagged MUC15 were immunoprecipitated; details of the method in the supplement

B1: Mucin 15 (MUC15), Flag-tagged (protein, UniProt Q8N387 24-334)
chain: KENQDINTTQNIAEVFKTMENKPISLESEANLNSDKENITTSNLKASHSPPLNLPNNSHGITDFSSNSSAEHSLGSLKPTSTISTSPPLIHSFVSKVPWNAPIADEDLLPISAHPNATPALSSENFTWSLVNDTVKTPDNSSITVSILSSEPTSPSVTPLIVEPSGWLTTNSDSFTGFTPYQEKTTLQPTLKFTNNSKLFPNTSDPQKENRNTGIVFGAILGAILGVSLLTLVGYLLCGKRKTDSFSHRRLYDDRNEPVLRLDNAPEPYDVSFGNSSYYNPTLNDSAMPESEENARDGIPMDDIPPLRTSV
B1 was tested, and the binding was “binds”.
